According to PubChem BioAssay AID540276 (National Center for Advancing Translational Sciences (NCATS), 2011):
Values joined by “and” are separate entries in the source; they are usually repeats but may differ in a detail not shown here. Equal entries are not always repeated. Among all 300,000 compounds or so, about 5,400 (1.8%) were called active. The shares of active, inactive and inconclusive entries below differ from those in the screen. Calls follow the shape of the full dose curve; tested in HEK293 cells. Potencies of inconclusive entries are doubtful fits and often do not repeat.

test: qHTS for inhibitors of binding or entry into cells for Marburg Virus; conditions: Marburg virus pseudotyped entry inhibition, cell reporter; activity change, negative = inhibition: at 37.8 µM (top of the series) unless noted
% is scaled to controls: 0 for no effect and ±100 for the full control effect; potency is read from the fitted curve at half-maximal effect.

Structure (SMILES)	Potency	activity change, negative = inhibition
COc1ccccc1CNc1ncnc2cc(Cl)ccc12	inconclusive: 1 µM [inhibitor, full curve, poor fit]	
COc1ccc(Cc2c(C)nn(-c3nc(C)c(C(=O)Nc4ccc(C)cc4C)s3)c2C)cc1	inactive	
COc1cc(C2c3c(-c4ccccc4O)n[nH]c3C(=O)N2CCO)ccc1OCC(C)C (stereo not drawn)	inconclusive: 12.6 µM [inhibitor, partial curve, poor fit]	
CC(=O)N(CCCN(C)C)CCC(C)CCC=C(C)C (stereo not drawn)	inconclusive: 5.17 µM [inhibitor, full curve]	
O=C(COc1cccc2ccccc12)N1c2ccccc2CCc2ccccc21	inconclusive: 8.2 µM [inhibitor, partial curve, poor fit]	
Cc1cc(OCc2cc(C(=O)N3CCCCCC3)no2)cc(C)c1Cl	inconclusive: 35.5 µM [inhibitor, single point]	
O=C(Nc1ccc2c(c1)OCCO2)c1ccc(Cl)c(Cl)c1	inconclusive: 0.708 µM [activator, full curve, poor fit]	
Cc1cccc(S(=O)(=O)Nc2ccc(-c3nc4ccc(C)cc4s3)cc2)c1	inconclusive: 1.41 µM [activator, partial curve, poor fit]	
O=C(/C=C/c1ccco1)Nc1cccnc1	inconclusive: 3.55 µM [activator, partial curve, poor fit]	
O=C(NCc1ccc(F)cc1)C(c1ccccc1)N(CC1CCCO1)C(=O)Cn1nnc2ccccc21 (stereo not drawn)	inactive	
CCOc1ccc(NC(=O)CN(C)C(=O)CCCOc2ccc(Br)cc2)cc1OCC	inconclusive: 0.447 µM [activator, partial curve, poor fit]	
O=C(NCc1cccnc1)c1ccc(NS(=O)(=O)c2ccccc2)cc1	inconclusive: 3.55 µM [inhibitor, partial curve, poor fit]	
O=C(C1CCN(S(=O)(=O)c2ccc(Br)s2)CC1)N1CCN(C2CCCCC2)CC1	inconclusive: 22.4 µM [inhibitor, single point]	
Cc1cc(Cl)ccc1Oc1ccc(C(N)=O)cc1[N+](=O)[O-]	inconclusive: 1 µM [activator, full curve, poor fit]	
Cc1ccc(C)c(CSc2cn(CCNC(=O)c3ccccc3F)c3ccccc23)c1	inconclusive: 17.8 µM [inhibitor, partial curve, poor fit]	
O=C(CSc1ncnc2sccc12)Nc1ccc(S(=O)(=O)N2CCOCC2)cc1	inactive	
c1ccc(-c2noc(-c3ccc4ccccc4c3)n2)nc1	active: 1.64 µM	
Nc1ccc(Br)c[n+]1Cc1cccc2cccnc12	active: 10 µM	
Cc1cccc(Oc2ccc(NC(=O)CCC(=O)OCC(=O)c3ccc(Br)cc3)cc2)c1C	inactive	
CC(C)(C)c1ccc(Cn2nnc3c(=O)[nH]c(C4CCCN(C(=O)Cc5cccs5)C4)nc32)cc1 (stereo not drawn)	inactive and inconclusive: 20.6 µM [inhibitor, single point]	
COc1ccccc1C(=O)N1CCN(CCc2ccccc2)CC1	inactive	
COc1ccc2nc(NNC(=O)COc3ccccc3)sc2c1	inactive	
Cc1occc1C(=O)Nc1cccc2ccccc12	inconclusive: 15.8 µM [inhibitor, single point]	

Structure (SMILES)	Potency	activity change, negative = inhibition
COC(=O)CNc1cc(S(=O)(=O)N2CCCCC2)ccc1Oc1ccc(C(=O)OC)cc1	inconclusive: 35.5 µM [inhibitor, single point]	
Clc1ccc(OCc2nnc(SCc3nnc(-c4ccccc4)o3)o2)c(Cl)c1	inactive	
COc1cc(/C=N/N=C2/NC(=O)C(CC(=O)O)S2)ccc1OCc1cccc(Cl)c1 (stereo not drawn)	inconclusive: 4.47 µM [activator, single point]	
O=C(COc1ccccc1[N+](=O)[O-])Nc1ccc(N2CCN(C(=O)c3cccs3)CC2)cc1	inconclusive: 7.94 µM [inhibitor, partial curve, poor fit]	
Cc1ccc(/C(O)=C2/C(=O)C(=O)OC2c2ccc(Cl)cc2)cc1 (stereo not drawn)	inactive	
O=C(CCS(=O)(=O)c1ccccc1)Nc1nnc(C(F)(F)F)s1	inconclusive: 10 µM [inhibitor, partial curve]	
OC(CN1CCC(Cc2ccc(F)cc2)CC1)c1ccc(Cl)cc1 (stereo not drawn)	active: 7.08 µM	
CC(C)N(C(=O)CSc1nnc(NC(=O)c2cccs2)s1)C(C)C	inconclusive: 0.92 µM [inhibitor, partial curve, poor fit]	
COc1cccc(NC(=O)C2CCN(S(C)(=O)=O)CC2)c1	inactive	
COc1ccccc1NC(=O)CNC(c1ccccc1)c1ccccc1	inconclusive: 10 µM [inhibitor, partial curve, poor fit]	
O=C(Nc1ccc(Cl)cc1)C1C2C=CC3(O2)C1C(=O)N(CCN1CCCCC1)C3C(=O)NC1CCCCC1 (stereo not drawn)	inconclusive: 14.1 µM [inhibitor, single point]	
CC(C)c1ccc(/C=C2\CC/C(=C\C=N\N(C)C)C2=O)cc1	inactive	
CN(C)c1ccc(/C=N/n2c(-c3ccccc3Br)n[nH]c2=S)cc1	inactive	
CCC1CCCCN1c1nc(-c2ccncc2)nc2ccccc12 (stereo not drawn)	active: 9.2 µM	
COc1ccc(C(NC(=O)c2cccnc2)c2cc(Cl)c3cccnc3c2O)cc1OC (stereo not drawn)	active: 7.08 µM	
COC(=O)C1=CN(Cc2cccs2)C=C(C(=O)OC)C1c1cccc(Cl)c1	inactive	
Cc1ccccc1CN1CCN(Cc2ccc3cccc(F)c3n2)CC1CCO (stereo not drawn)	inconclusive: 28.2 µM [inhibitor, single point]	
Cc1ccccc1CSCCNC(=O)CN(c1ccccc1)S(=O)(=O)N(C)C	inconclusive: 2.82 µM [inhibitor, partial curve, poor fit]	
CC[C@H](C)[C@H](NC(=O)OCc1ccccc1)C(=O)OCC(=O)Nc1ccc(N2CCOCC2)cc1	inconclusive: 0.1 µM [activator, full curve, poor fit]	
COC(=O)c1ccc(CSc2nnc(CS(=O)Cc3ccc(Br)cc3)n2-c2ccccc2)cc1 (stereo not drawn)	inconclusive: 2.51 µM [inhibitor, partial curve, poor fit]	
CC1CCN(S(=O)(=O)c2cc(Br)cc(C(=O)NC3=NCCS3)c2)CC1	inconclusive: 23.1 µM [inhibitor, single point]	
CC(=O)c1nn(-c2ccc(Br)cc2)cc1C(=O)c1ccccc1	inconclusive: 6.31 µM [activator, single point]	
Cc1cc(NC(=O)CCl)nn1C	active: 7.94 µM	

Ordered by heavy-atom count (low to high): some entries from above.
Structure (SMILES)	Potency	activity change, negative = inhibition
CC(C)N(C(=O)CSc1nnc(NC(=O)c2cccs2)s1)C(C)C	inconclusive: 0.92 µM [inhibitor, partial curve, poor fit]	
COC(=O)C1=CN(Cc2cccs2)C=C(C(=O)OC)C1c1cccc(Cl)c1	inactive	
Clc1ccc(OCc2nnc(SCc3nnc(-c4ccccc4)o3)o2)c(Cl)c1	inactive	

More records follow:

Structure (SMILES)	Potency	activity change, negative = inhibition
O=C(O)c1sc2cc(C(F)(F)F)cnc2c1-c1cccs1	inconclusive: 5.62 µM [activator, partial curve, poor fit]	
O=C1CC(NS(=O)(=O)c2ccc([N+](=O)[O-])cc2)CN1c1cccc(F)c1 (stereo not drawn)	inconclusive: 6.31 µM [activator, single point]	
C=CCn1c(-c2cccnc2Cl)nc2ccccc21		inconclusive: 9.73% [activator] [at 46.1 µM]
Cc1cc(NC2=CC(=O)C(=O)c3ccccc32)no1	inconclusive: 35.5 µM [inhibitor, single point]	
CCCN1CCC(NC(=O)Nc2ccc([N+](=O)[O-])cc2)CC1	inconclusive: 31.6 µM [inhibitor, partial curve, poor fit]	
COc1ccc(C=NCCCN2CCOCC2)cc1	inactive	
CCC1CCCCN1CC(=O)c1c(C)[nH]c2ccccc12 (stereo not drawn)	inactive	
O=C(CNC(=O)c1cccs1)Nc1cccc(S(=O)(=O)N2CCOCC2)c1	inactive	
Cc1cc(C)c2nc(NC(=O)C3CC(=O)N(Cc4ccco4)C3)sc2c1 (stereo not drawn)	inconclusive: 7.94 µM [inhibitor, partial curve, poor fit]	
Cc1nc2ccccc2nc(C)c1=NOCC(=O)N(c1ccccc1)C(C)C	inconclusive: 35.5 µM [inhibitor, single point]	
Cc1cc(C)cc(N2C(=O)/C(=C\c3ccc(N4CCN(C)CC4)o3)C(=O)NC2=S)c1	inconclusive: 5.62 µM [inhibitor, single point]	
COc1ccc(N(CC(=O)NCC2CCCO2)S(=O)(=O)c2ccccc2)cc1OC (stereo not drawn)	inactive	
Cc1ccc(OCCC(=O)N2CCN(c3ccc(O)cc3)CC2)cc1	inconclusive: 5.62 µM [inhibitor, full curve, poor fit]	
Cc1[nH]n2c(=O)c3c(nc2c1-c1cccc2ccccc12)CCC3	inconclusive: 8.2 µM [inhibitor, partial curve, poor fit]	
Cc1ccc(NC(=O)CN2C(=O)NC(C)(c3ccc(Cl)cc3)C2=O)c(Br)c1 (stereo not drawn)	inconclusive: 31.6 µM [inhibitor, single point]	
COc1ccc(NC(=O)N2CCN(C(=O)C3CCCO3)CC2)cc1 (stereo not drawn)	inconclusive: 35.5 µM [activator, single point]	
C(=N\Nc1ccccn1)/c1ccc(N2CCOCC2)cc1	inconclusive: 2.82 µM [activator, partial curve, poor fit]	
COc1ccc(NC(=O)C2CCC(CNS(=O)(=O)c3cccs3)CC2)cc1OC (stereo not drawn)	inconclusive: 8.91 µM [inhibitor, partial curve, poor fit]	
COc1ccc(C(=O)N=c2sc3ccccc3n2C)cc1OC	inconclusive: 6.31 µM [activator, single point]	
COc1c(Cl)cc(Cl)cc1CNCCSc1nnnn1C	inactive	
CCOC(=O)Cc1ccc(NC(=O)c2ccc(C(C)(C)C)cc2)cc1	active: 12.6 µM	
Cc1ccc(S(=O)(=O)c2nc(S(=O)(=O)c3ccc(C)cc3)c(NCc3ccco3)s2)cc1	inactive	
